These results are taken from PMC7826336.

Protein sequences, listed by entry. Tags and fused reporters are not part of them. Lines headed by an entry give the natural chain unless they say otherwise; changes in a name come on top.
UniProt P03952: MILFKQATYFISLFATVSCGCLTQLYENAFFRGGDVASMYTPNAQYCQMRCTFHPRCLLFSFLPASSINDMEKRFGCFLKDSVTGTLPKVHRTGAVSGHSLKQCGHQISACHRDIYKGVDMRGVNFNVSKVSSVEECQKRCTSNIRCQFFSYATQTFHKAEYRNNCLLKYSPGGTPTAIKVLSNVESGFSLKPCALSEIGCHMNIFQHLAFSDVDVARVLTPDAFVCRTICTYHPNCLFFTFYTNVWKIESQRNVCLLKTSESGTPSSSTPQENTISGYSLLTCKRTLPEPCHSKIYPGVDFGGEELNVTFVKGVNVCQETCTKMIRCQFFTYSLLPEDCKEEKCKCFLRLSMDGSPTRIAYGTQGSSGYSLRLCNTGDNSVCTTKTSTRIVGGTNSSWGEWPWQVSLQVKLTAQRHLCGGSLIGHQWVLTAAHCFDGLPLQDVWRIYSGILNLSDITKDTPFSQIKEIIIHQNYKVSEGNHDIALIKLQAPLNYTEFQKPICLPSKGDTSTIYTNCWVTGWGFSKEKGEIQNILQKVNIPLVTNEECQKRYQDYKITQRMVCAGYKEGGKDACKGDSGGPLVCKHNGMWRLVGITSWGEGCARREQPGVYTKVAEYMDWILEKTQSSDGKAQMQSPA
UniProt P00740: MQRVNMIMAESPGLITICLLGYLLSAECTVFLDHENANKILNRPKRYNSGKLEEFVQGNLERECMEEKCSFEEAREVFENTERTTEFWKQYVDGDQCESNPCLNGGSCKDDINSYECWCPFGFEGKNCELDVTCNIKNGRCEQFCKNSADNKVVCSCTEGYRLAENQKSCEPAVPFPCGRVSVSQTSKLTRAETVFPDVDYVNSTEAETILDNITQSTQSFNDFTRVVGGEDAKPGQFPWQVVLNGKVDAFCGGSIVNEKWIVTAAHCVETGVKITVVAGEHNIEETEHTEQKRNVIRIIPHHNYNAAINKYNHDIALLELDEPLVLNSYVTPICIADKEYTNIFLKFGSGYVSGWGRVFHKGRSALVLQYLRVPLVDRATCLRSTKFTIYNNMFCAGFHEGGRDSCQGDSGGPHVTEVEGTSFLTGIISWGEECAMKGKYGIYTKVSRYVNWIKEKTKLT

For the test, the target named is kallikrein (PKa) (UniProt P03952). As to the kind of experiment: SPR; as a1, but analyte (FIX or FIXa, 250 nM) preincubated in one vessel with 250 nM HK before injection over immobilised PK or PKa; signal compared with HK alone; n = 1; both purified. (In general: SPR reads the build-up and loss of mass on a sensor chip optically.)

These are yes or no findings as the source states them, for the method shown. Binding calls can cover weak binding; strength is not graded here.

Factor IX (FIX) (from UniProt P00740): the binding entry is given as “binds”.
